# In PubChem BioAssay AID256 (DTP/NCI, 2004):
# The list shows only some results of the screen, not a fair sample: it gathers tests that were run many times, whatever their T/C, doses with no T/C, and many T/C values between a quarter and a half above the control. Other doses and runs of a compound stand elsewhere. T/C gives the treated animals as a percentage of the vehicle group. Some entries give survivors of the animals treated and no T/C: the source files T/C as zero there, which appears to mark a toxic dose or a test without result, not a measured value. Some survivor counts are full or nearly so, which does not show that the dose was tolerated: survival well below the control is almost never listed, so the zero probably covers shortened survival too. Survivors were counted at the toxicity check, usually on the fifth day, unless a day is given; later deaths do not show. Schedules are NCI's codes, read here as Q, the interval in days (D) or hours (H), X, the number of doses. Some entries hold several experiments; the values are given in rising order. Where survival is the endpoint, the PubChem record calls one and a half times the control and up active, and a quarter to a half above the control has no call in these data; cut-offs in other NCI protocols can differ.
# Tested on: CD2F1 mice, L1210 leukemia ip, survival T/C
# Assay: NCI In Vivo Anticancer Drug Screen. Data for tumor model L1210 Leukemia (intraperitoneal) in CD2F1 (CDF1) mice
# Conditions: T/C endpoint: mean survival time, higher T/C = longer survival
# Protocol: The antitumor activity of compounds was measured in mice bearing transplantable tumors. Survival or tumor size were measured and the results are expressed as the measurement made in the treated group (T) divided by the measurement made in the vehicle treated control group (C). The tumor model used in this assay is L1210 Leukemia (intraperitoneal) in CD2F1 (CDF1) mice
# [1] = dose: 200.0 mg/kg/injection, schedule: Q04DX003 (ip), vehicle: saline with Tween-80
# [2] = dose: 400.0 mg/kg/injection, schedule: Q04DX003 (ip), vehicle: saline with Tween-80
# [3] = dose: 200.0 mg/kg/injection, schedule: Q01DX009 (ip), vehicle: saline with Tween-80
# [4] = dose: 200.0 mg/kg/injection, schedule: Q04DX003 (ip), vehicle: distilled water + Tween-80
# [5] = dose: 100.0 mg/kg/injection, schedule: Q01DX009 (ip), vehicle: saline with Tween-80
# [6] = dose: 50.0 mg/kg/injection, schedule: Q01DX009 (ip), vehicle: saline with Tween-80
smiles,measurement,setting,value
COC(=O)C(CSSCC(NC(=O)CNC(=O)c1ccccc1)C(=O)OC)NC(=O)CNC(=O)c1ccccc1 (centres undefined),survivor count,"dose: 400.0 mg/kg/injection, schedule: Q01DX009 (ip), vehicle: saline with Tween-80",4 of 6
Cc1cc(N2CCCN(C)CC2)nc(/N=C(\N)Nc2ccc(Cl)c(Cl)c2)n1,survivor count,[1],3 of 6
same,survivor count,[2],0 of 6
C#CC12CCCCN1CCC2 (centres undefined),survivor count,"dose: 400.0 mg/kg/injection, schedule: Q01DX001 (ip), vehicle: saline",1 of 6
C=C(CN(C)C)c1ccccn1,survivor count,"dose: 150.0 mg/kg/injection, schedule: Q01DX001 (ip), vehicle: other",1 of 6
same,survivor count,"dose: 300.0 mg/kg/injection, schedule: Q01DX001 (ip), vehicle: other",0 of 6
O=C1CCCN1C1CC2c3ccccc3C1c1cccc[n+]12 (centres undefined),survivor count,"dose: 100.0 mg/kg/injection, schedule: Q04DX003 (ip), vehicle: saline with Tween-80",0 of 6
same,survivor count,[1],0 of 6
same,survivor count,[2],0 of 6
COc1cc(OC)c(NC(=O)Oc2ccc(NC(C)=O)cc2)cc1Cl,survivor count,[3],3 of 3
OCc1ccc[n+](CCc2c[nH]c3ccccc23)c1,survivor count,[3],1 of 6
O=S(=O)(O)O.[Pt].c1ccc([PH+](c2ccccc2)c2ccccc2)cc1.c1ccc([PH+](c2ccccc2)c2ccccc2)cc1.c1ccc([PH+](c2ccccc2)c2ccccc2)cc1,survivor count,"dose: 50.0 mg/kg/injection, schedule: Q04DX003 (ip), vehicle: distilled water + Tween-80",0 of 6
same,survivor count,"dose: 100.0 mg/kg/injection, schedule: Q04DX003 (ip), vehicle: distilled water + Tween-80",0 of 6
same,survivor count,[4],0 of 6
[NH-]C(CO)C(=O)O.[NH-]C(CO)C(=O)O.[Pd+2] (centres undefined),survivor count,[4],2 of 6
same,survivor count,"dose: 200.0 mg/kg/injection, schedule: Q04DX003 (ip), vehicle: saline",0 of 6
same,survivor count,"dose: 200.0 mg/kg/injection, schedule: Q04DX003 (ip), vehicle: water",0 of 6
Cc1cc(C)c(C(Cl)(Cl)Cl)c(C)c1Cl,survivor count,[5],1 of 6
same,survivor count,"dose: 200.0 mg/kg/injection, schedule: Q01DX001 (ip), vehicle: saline with Tween-80",3 of 6
same,survivor count,"dose: 400.0 mg/kg/injection, schedule: Q01DX001 (ip), vehicle: saline with Tween-80",1 of 6
CCCCC(OC(=O)Nc1cccc2ccccc12)C(C)C (centres undefined),survivor count,[2],6 of 6
COc1ccc(-c2nc3ccccc3nc2-c2ccc(OC)cc2)cc1,survivor count,[2],3 of 3
COc1cccc(N=C(N)N=C(N)N)c1,survivor count,"dose: 400.0 mg/kg/injection, schedule: Q01DX009 (ip), vehicle: saline",0 of 6
Nc1n[n+](-c2ccc(Cl)cc2)no1,survivor count,"dose: 100.0 mg/kg/injection, schedule: Q01DX009 (ip), vehicle: water",1 of 6
CN(C)/C=C(\C#N)C=O,survivor count,"dose: 150.0 mg/kg/injection, schedule: Q04DX003 (ip), vehicle: saline with Tween-80",3 of 6
same,survivor count,"dose: 300.0 mg/kg/injection, schedule: Q04DX003 (ip), vehicle: saline with Tween-80",0 of 6
Cc1ccc(Cl)cc1NC(=S)NC(=O)COc1ccccc1,T/C,[6],89 and 94 % of control
same,survivor count,[6],1 of 3 and 5 of 6
same,survivor count,[5],2 of 3 and 4 of 6
same,survivor count,[3],2 of 6 and 2 of 3
same,survivor count,[1],6 of 6
same,survivor count,"dose: 400.0 mg/kg/injection, schedule: Q04DX002 (ip), vehicle: saline with Tween-80",0 of 3
COC1=CC2c3ccccc3C1C1C(OC)=CC2c2ccccc21,survivor count,[1],6 of 6
same,survivor count,[2],6 of 6
